In US12648964B2, “Chimeric Tim receptors and uses thereof” (CERO THERAPEUTICS HOLDINGS, INC., priority 2020, dated 2026):
“Also recorded” adds a separate entry of the source. For at least one compound, name, drawing or mass did not settle the structure.

Tested on: JeKo-1 MCL
Experiment: Ptd-Ser exposure on Ibrutinib-treated JeKo-1 MCL cells (recombinant murine Tim4 staining)
Type: cell-based
Conditions: JeKo-1 MCL treated with Ibrutinib

C=CC(=O)N1CCC[C@@H](n2nc(-c3ccc(Oc4ccccc4)cc3)c3c(N)ncnc32)C1 [Ibrutinib]
Ptd-Ser exposure on target cells: induces expression of phosphatidylserine on target cells; also recorded: exposes Ptd-Ser
